For one substance, binding results are on record in article PMC10536199.

Chains of the proteins cited; added tags and fusions are not shown. Residues count along the entry.
UniProt Q8WUM4: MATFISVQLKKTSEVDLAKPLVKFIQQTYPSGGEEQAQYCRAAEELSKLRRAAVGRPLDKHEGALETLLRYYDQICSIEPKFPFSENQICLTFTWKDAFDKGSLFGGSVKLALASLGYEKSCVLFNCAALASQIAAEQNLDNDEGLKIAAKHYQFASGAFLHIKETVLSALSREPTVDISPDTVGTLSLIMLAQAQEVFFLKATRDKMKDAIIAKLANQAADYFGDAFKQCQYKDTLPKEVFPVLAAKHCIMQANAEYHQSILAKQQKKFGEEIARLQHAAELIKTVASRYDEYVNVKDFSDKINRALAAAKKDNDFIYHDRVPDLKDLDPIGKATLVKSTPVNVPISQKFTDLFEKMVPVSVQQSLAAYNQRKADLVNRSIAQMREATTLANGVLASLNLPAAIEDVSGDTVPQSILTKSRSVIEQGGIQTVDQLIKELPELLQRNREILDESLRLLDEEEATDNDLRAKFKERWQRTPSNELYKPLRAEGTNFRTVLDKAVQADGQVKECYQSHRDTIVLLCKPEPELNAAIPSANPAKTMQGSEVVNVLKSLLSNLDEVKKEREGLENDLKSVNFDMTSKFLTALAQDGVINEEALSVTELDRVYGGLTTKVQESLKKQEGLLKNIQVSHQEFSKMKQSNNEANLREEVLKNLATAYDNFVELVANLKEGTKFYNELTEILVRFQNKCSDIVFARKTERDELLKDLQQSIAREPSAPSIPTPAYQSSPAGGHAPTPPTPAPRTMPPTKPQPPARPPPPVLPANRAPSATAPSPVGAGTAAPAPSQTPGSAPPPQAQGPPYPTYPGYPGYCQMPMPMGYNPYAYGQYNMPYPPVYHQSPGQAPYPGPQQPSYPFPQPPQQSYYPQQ
UniProt P13500, residues 24-99: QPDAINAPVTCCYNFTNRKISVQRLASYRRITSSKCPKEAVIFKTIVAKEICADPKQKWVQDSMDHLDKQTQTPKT

The target in the experiment is 3HA-Alix (ALG-2-interacting protein X) (human) (UniProt Q8WUM4). Description: co-IP; HEK293T cells co-transfected, harvested after 48 h; lysed in 50 mM Tris, 150 mM NaCl, 2 mM EDTA, 3% glycerol, 1% NP-40, sonicated; anti-HA or anti-Flag antibody 3 h at 4 °C, protein A-agarose 3 h at 4 °C, 6 washes; Western blotting; also in control and Alix knockdown cells, and with or without co-expressed CCL2.

Results are given in words; binding and its absence hold for the method and conditions named. Binding seen in cells or lysates may run through a third protein. Some entries that bind do so weakly or less than the wild type.

Consider “3Flag-CCL2 (24-99 aa), mature human CCL2 (from UniProt P13500 24-99)”, for which the binding entry is on record as “binds”.
